In PubChem BioAssay AID2685 (National Center for Advancing Translational Sciences (NCATS), 2010) one finds cell number change and AC50 data, which are given here for 38 molecules.

SMILES strings stand for the structures. Some of the results follow. The main result of the screen is listed elsewhere. These columns were measured beside it and carry no call. Compounds called inactive in the main read-out are mostly missing here. The note in brackets gives the kind of curve behind each potency; many fits are weak.

This assay is described as follows: qHTS Assay for Lipid Storage Modulators in Drosophila S3 Cells.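 On cell number change: cells counted by Cell Tracker Red CMTPX staining in the red channel.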 The note with it: BODIPY lipid droplet fluorescence, 18-24 h; for cell number change: measured here: cell count max response, cells fed with added oleic acid. A digest of the protocol: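 Laser-scanning cytometry quantifies lipid droplet accumulation (500–530 nm total intensity; droplet/cell object ratio) in oleic acid-fed (400 uM added) Drosophila S3 cells treated with a concentration series. 20 uM Triacsin C defined 100% inhibition.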
On the technique in general: qHTS replaces the single test concentration by a dilution series.

Where [1] appears, read: measured here: lipid fluorescence (Fed channel) AC50, cells fed with added oleic acid.
[2] abbreviates: measured here: cell number channel AC50, cells fed with added oleic acid.

By AC50 is commonly meant the concentration at which the activity in the assay is half-maximal. Read a low AC50 as activity at low concentration. Regarding `CC1CN(S(=O)(=O)c2cc(C(=O)NCc3ccncc3)ccc2Cl)CC(C)O1` (stereo not given), the cell number change was -6.33%. Besides, the concentration at half-maximal activity (AC50) under setting [1] is 0.13 µM [rising, full curve].

Take `C/[N+]([O-])=C\CC(=O)c1ccc(-c2ccccc2)cc1`: the cell number change was found to be 0.678%.

For the molecule `CCN(c1ccccc1)S(=O)(=O)c1ccc(OC)c(NC(=O)CNCCc2ccccc2)c1`, the cell number change was -39.4%. Also, the AC50 under setting [2] was 14.6 µM [falling, partial curve, poor fit]. Further, the AC50 under setting [1] was 6.51 µM [falling, single point].

On to `CN(C)c1cccc(C(=O)N2CCCC(C(=O)c3cc(F)ccc3F)C2)c1` (stereo not given), for which the cell number change was -2.29%. For the same molecule, the AC50 under setting [1] was 29.1 µM [falling, single point].

In the case of `COc1ccccc1N1CCN(C(=O)C2CCN(C(=O)c3cccc(Cl)c3)CC2)CC1`, the cell number change was found to be 0.901%. Also, the AC50 under setting [1] is 29.1 µM [falling, single point].

In the case of `Nc1nonc1-c1noc(N2CCCCC2)n1`, the cell number change is 5.37%.

`CCC(C(=O)OCc1csc(CC(=O)Nc2ccccc2C)n1)c1ccccc1` (stereo not given): the cell number change is 8.94%. Besides, the half-maximal activity concentration (AC50) under setting [1] is 1.46 µM [rising, full curve].

Regarding `COc1ccc(-c2nnc(SCC(=O)N3CCOCC3)o2)cc1OC`, the cell number change amounted to 36.3%. Further, the AC50 under setting [2] was 20.6 µM [rising, single point].

For the molecule `Cc1nc(C)c(-c2csc(Nc3cccnc3)n2)s1`, the cell number change was found to be 267%. For the same molecule, the concentration at half-maximal activity (AC50) under setting [2] is 1.16 µM [rising, full curve, poor fit]. Also, the AC50 under setting [1] was 0.58 µM [rising, partial curve, poor fit].

In the case of `CCOC(=O)c1cnn(-c2ccccc2)c1-n1cccc1C(=O)C(=O)N(CC)CC`, the cell number change is 9.8%.

Consider `O=C(Cn1cc([N+](=O)[O-])ccc1=O)NCc1ccc(Cl)cc1Cl`, for which the cell number change was 1.08%. For the same molecule, the AC50 under setting [1] was 29.1 µM [rising, single point].

Regarding `CC1=C(C(=O)OCC2CCCO2)C(c2ccc(O)cc2)NC(=O)N1` (stereo not given), the cell number change was 3.04%.

Take `CC(C)(C)n1nc(-c2ccc(Cl)cc2)c2c(N)ncnc21`: the cell number change was -51.3%. Further, the AC50 under setting [2] was 23.1 µM [falling, single point]. In addition, the AC50 under setting [1] is 20.6 µM [falling, single point].

`COc1ccc(-c2cc3c(=O)n(CC(=O)N4CCN(C)CC4)ncn3n2)cc1`: the cell number change came out at 30.3%. Besides, under setting [2], the concentration at half-maximal activity (AC50) was 8.2 µM [rising, partial curve]. Under setting [1], the AC50 was 29.1 µM [rising, single point].

`NC(=O)c1c(NC(=O)C2c3ccccc3Oc3ccccc32)sc2c1CCCCC2`: the cell number change was 132%. For the same molecule, the AC50 under setting [2] was 2.59 µM [rising, full curve]. Also, under setting [1], the AC50 was 2.91 µM [rising, full curve].

With `COc1ccccc1NC(=O)Cc1ccc(-c2ccccc2)cc1`, the cell number change is 5.22%. Under setting [1], the concentration at half-maximal activity (AC50) was 0.58 µM [rising, single point].

On to `CN(C)c1ccc(N=Nc2ccccc2C(=O)OCC(=O)NC2CCCC2)cc1`, for which the cell number change was -26.6%. Further, under setting [1], the half-maximal activity concentration (AC50) was 23.1 µM [falling, single point].

Turning to `CC(C)C(C)(C#N)NC(=O)CN1C(=O)NC2(CCCc3ccccc32)C1=O` (stereo not given), the cell number change came out at 0.587%. Further, under setting [1], the concentration at half-maximal activity (AC50) was 6.51 µM [falling, single point].

As to `Cc1cccc(NCc2cc(Cl)cc(Cl)c2O)n1`, the cell number change was -61.4%. Moreover, the AC50 under setting [2] was 10.3 µM [falling, partial curve]. Moreover, the half-maximal activity concentration (AC50) under setting [1] is 11.6 µM [falling, partial curve].

Consider `Cc1nc2nc[nH]n2c(=O)c1CC(=O)O`, for which the cell number change is -27%. Further, the AC50 under setting [2] is 1.3 µM [falling, full curve, poor fit]. For the same molecule, the concentration at half-maximal activity (AC50) under setting [1] is 0.58 µM [falling, single point].

For the molecule `C=CC#CC1(O)CC(C)[N+](C)(C)CC1C` (stereo not given), the cell number change was -49.1%. Further, the half-maximal activity concentration (AC50) under setting [2] was 7.31 µM [falling, partial curve]. For the same molecule, under setting [1], the half-maximal activity concentration (AC50) is 13 µM [falling, partial curve].

Turning to `Cc1cccc(NC2=NCC(=O)N2Cc2ccccc2)c1`, the cell number change came out at 24%. Moreover, the half-maximal activity concentration (AC50) under setting [1] is 6.51 µM [rising, single point].

For the molecule `COc1ccc(S(=O)(=O)N2CCOCC2)cc1NC(=O)c1cccc(Cl)c1`, the cell number change was -7.18%. Moreover, the half-maximal activity concentration (AC50) under setting [1] was 29.1 µM [falling, single point].

For the molecule `CCOc1cc(CNn2cnnc2)ccc1OCC(=O)NC1CCCCC1`, the cell number change was determined as 6.83%. Further, the AC50 under setting [1] was 6.51 µM [rising, single point].

For `CCN(Cc1ccncc1)C(=S)Nc1ccc(Cl)cc1`, the cell number change came to 23.3%. In addition, under setting [1], the half-maximal activity concentration (AC50) is 29.1 µM [falling, single point].

As to `O=C(COC(=O)c1ccc(CN2CCCC2=O)cc1)Nc1ccc(F)cc1`, the cell number change was -4.28%. Moreover, under setting [1], the concentration at half-maximal activity (AC50) is 5.8 µM [falling, single point].

In the case of `CCCCSc1nc(C)cc(NC(=S)Nc2ccc(OC)cc2)n1`, the cell number change was -40.2%. For the same molecule, the AC50 under setting [2] was 2.59 µM [falling, partial curve]. Further, the half-maximal activity concentration (AC50) under setting [1] was 2.59 µM [falling, partial curve].

With `COc1ccc(-c2noc(N3CCC(C(=O)Nc4ccc(F)cc4F)CC3)n2)cc1`, the cell number change was found to be 13%. Further, under setting [1], the AC50 is 3.66 µM [rising, single point].

Consider `COc1ccc(C(=O)N2N=C(c3ccccc3)CC2(O)C(F)(F)F)cc1` (stereo not given), for which the cell number change came to 5.39%. In addition, the concentration at half-maximal activity (AC50) under setting [2] is 6.51 µM [rising, single point].

With `O=C(CN1CCN(Cc2ccccc2)CC1)c1ccccc1`, the cell number change worked out at 18.1%. Further, under setting [1], the concentration at half-maximal activity (AC50) was 16.4 µM [rising, partial curve].

`Cc1cccc(C)c1OCC(=O)NCC1COc2ccccc2O1` (stereo not given): the cell number change was found to be 24.7%. The AC50 under setting [1] is 0.651 µM [rising, full curve, poor fit].

Take `COc1cccc(CNC(=O)CSCc2cnn(-c3ccccc3)c2-n2cccc2)c1OC`: the cell number change is -0.237%. Further, under setting [1], the half-maximal activity concentration (AC50) is 1.3 µM [falling, partial curve].

As for `COc1ccc(NS(=O)(=O)c2ccc(C)c(C(=O)N3CCC3)c2)cc1`, the cell number change amounted to 24.5%.

Regarding `Cc1ccc(S(=O)(=O)N2CCOCC2)cc1C(=O)OCC(=O)NC1CCCC(C)C1C` (stereo not given), the cell number change was -19.6%. Also, the AC50 under setting [1] is 0.00517 µM [falling, full curve, poor fit].

`CCCc1nc2ccccc2c(C(=O)OCC(=O)NCc2ccco2)c1CC`: the cell number change is -8.92%. Further, under setting [1], the concentration at half-maximal activity (AC50) is 5.8 µM [rising, single point].

`COc1ccc(C(=O)NC(=S)NC(C)C)cc1Br`: the cell number change came out at 17%. For the same molecule, the AC50 under setting [1] is 29.1 µM [rising, single point].

In the case of `N#Cc1nc(COc2ccc(-c3ccccc3)cc2)oc1NCCCN1CCOCC1`, the cell number change is -23.7%. In addition, the AC50 under setting [1] was 3.26 µM [rising, single point].

As to `CCc1ccc(NC(=O)CNC(=O)Cn2ccc3ccccc3c2=O)cc1`, the cell number change is 15.4%. For the same molecule, the half-maximal activity concentration (AC50) under setting [1] was 29.1 µM [rising, partial curve, poor fit].
